Results from PMC9027364.
No constants are given. Whether binding was seen depends on the method and setting. Binding seen in cells or lysates may run through a third protein. Some entries that bind do so weakly or less than the wild type.

Sequences of proteins named here, by UniProt entry; tags and fusion partners are left off. Residues count along the entry.
UniProt P03107: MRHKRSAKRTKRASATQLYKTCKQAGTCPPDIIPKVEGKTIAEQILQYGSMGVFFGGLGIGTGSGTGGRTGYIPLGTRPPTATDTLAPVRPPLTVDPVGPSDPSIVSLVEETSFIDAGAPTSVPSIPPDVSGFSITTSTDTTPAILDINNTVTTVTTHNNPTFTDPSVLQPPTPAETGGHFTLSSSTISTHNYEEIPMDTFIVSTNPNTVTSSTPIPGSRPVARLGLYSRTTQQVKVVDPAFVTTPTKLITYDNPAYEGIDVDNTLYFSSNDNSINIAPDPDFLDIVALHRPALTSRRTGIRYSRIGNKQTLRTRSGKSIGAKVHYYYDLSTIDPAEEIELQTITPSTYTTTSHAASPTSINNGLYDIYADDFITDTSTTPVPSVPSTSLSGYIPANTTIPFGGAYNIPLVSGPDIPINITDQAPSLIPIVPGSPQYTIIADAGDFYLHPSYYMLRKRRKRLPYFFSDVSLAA
UniProt Q92542, residues 34-709: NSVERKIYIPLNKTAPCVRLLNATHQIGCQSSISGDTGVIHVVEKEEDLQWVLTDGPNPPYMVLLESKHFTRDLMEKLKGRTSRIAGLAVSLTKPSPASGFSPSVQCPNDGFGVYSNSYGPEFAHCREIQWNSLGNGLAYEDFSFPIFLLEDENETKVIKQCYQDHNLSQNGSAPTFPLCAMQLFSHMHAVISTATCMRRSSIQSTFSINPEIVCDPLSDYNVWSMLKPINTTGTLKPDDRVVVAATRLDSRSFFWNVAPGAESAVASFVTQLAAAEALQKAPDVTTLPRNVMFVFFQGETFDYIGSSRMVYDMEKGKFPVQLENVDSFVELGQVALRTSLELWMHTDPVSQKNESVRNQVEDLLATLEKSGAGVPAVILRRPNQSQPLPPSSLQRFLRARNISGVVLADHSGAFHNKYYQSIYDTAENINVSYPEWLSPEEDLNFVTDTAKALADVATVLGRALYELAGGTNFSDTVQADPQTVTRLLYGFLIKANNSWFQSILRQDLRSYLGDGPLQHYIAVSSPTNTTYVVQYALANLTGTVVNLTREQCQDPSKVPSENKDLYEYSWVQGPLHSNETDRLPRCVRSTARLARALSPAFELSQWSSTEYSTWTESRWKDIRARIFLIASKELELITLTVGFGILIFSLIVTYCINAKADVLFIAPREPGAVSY
UniProt Q9NZ42: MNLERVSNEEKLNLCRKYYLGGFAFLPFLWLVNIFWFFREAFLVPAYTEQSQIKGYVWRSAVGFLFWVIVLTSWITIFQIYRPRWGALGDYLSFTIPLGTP

Target: HPV16 L2 minor capsid protein, wild type, with three tandem FLAG tags at the C-terminus (in HPV16 PsV) (human papillomavirus type 16) (UniProt P03107)
Test: co-IP

With “nicastrin (NCT), subunit of γ-secretase (from UniProt Q92542 34-709)” the binding was “binds”.
With “PEN2, subunit of γ-secretase (from UniProt Q9NZ42 1-101)” the binding was “binds”.
